PubChem BioAssay AID686943, Drosophila RNAi Screening Center, 2013
Test: 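Knockdowns that increase or decrease active ERK after insulin receptor stimulation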 (primary screen). Cell system: Drosophila S2R+ haemocyte-like cells expressing YFP-tagged ERK (Rolled). Reagent: long dsRNA against Drosophila genes. Conditions: insulin stimulation versus unstimulated cells; dose and duration not given. Measurement: 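Antibody staining for doubly phosphorylated ERK divided by ERK-YFP signal, as plate z-scores, in insulin-treated and untreated cells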. Scale: replicate 1, z-score of dpERK with insulin and replicate 2, z-score of dpERK with insulin: higher = more active ERK per ERK-YFP after insulin.
The screen tested about 23,000 reagents; this is an unselected part of those with a known target gene and a result. 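Extra replicates exist only for a retested subset of genes; insulin dose and duration not given; both raised and lowered dpERK matter.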 Reagents against one gene are numbered here. A plus sign joins genes that one reagent is predicted to hit. Further read-outs or replicates are left out here. Not stated in the record: the amount of reagent, the time to read-out.

CG15040 #1
- replicate 1, z-score of dpERK with insulin: 0.9
- replicate 2, z-score of dpERK with insulin: 0.97

CG15040 #2
- replicate 1, z-score of dpERK with insulin: 1.15
- replicate 2, z-score of dpERK with insulin: 3.28

CG4770
- replicate 1, z-score of dpERK with insulin: -0.23
- replicate 2, z-score of dpERK with insulin: -0.41

gus #1
- replicate 1, z-score of dpERK with insulin: 0.09
- replicate 2, z-score of dpERK with insulin: -0.1

gus #2
- replicate 1, z-score of dpERK with insulin: 0.05
- replicate 2, z-score of dpERK with insulin: -1.38

CG12730
- replicate 1, z-score of dpERK with insulin: 0.11
- replicate 2, z-score of dpERK with insulin: -0.22

Jhbp4
- replicate 1, z-score of dpERK with insulin: -0.34
- replicate 2, z-score of dpERK with insulin: 0.36

robl62A
- replicate 1, z-score of dpERK with insulin: 0.46
- replicate 2, z-score of dpERK with insulin: -0.68

CG6479
- replicate 1, z-score of dpERK with insulin: -1.2
- replicate 2, z-score of dpERK with insulin: -0.53

sing + Axs
- replicate 1, z-score of dpERK with insulin: 0.21
- replicate 2, z-score of dpERK with insulin: 0.59

CR30409
- replicate 1, z-score of dpERK with insulin: -0.59
- replicate 2, z-score of dpERK with insulin: -0.12

CG12895
- replicate 1, z-score of dpERK with insulin: 0.03
- replicate 2, z-score of dpERK with insulin: 0.58

CG14111
- replicate 1, z-score of dpERK with insulin: -0.15
- replicate 2, z-score of dpERK with insulin: 0.7

CenB1A
- replicate 1, z-score of dpERK with insulin: 1.87
- replicate 2, z-score of dpERK with insulin: -0.29

Treh
- replicate 1, z-score of dpERK with insulin: 0.72
- replicate 2, z-score of dpERK with insulin: 0.16

CG12984
- replicate 1, z-score of dpERK with insulin: 0.57
- replicate 2, z-score of dpERK with insulin: 0.01

igl
- replicate 1, z-score of dpERK with insulin: -0.23
- replicate 2, z-score of dpERK with insulin: -1.66

CG33299
- replicate 1, z-score of dpERK with insulin: 0.29
- replicate 2, z-score of dpERK with insulin: 0.23

CG15602
- replicate 1, z-score of dpERK with insulin: -0.23
- replicate 2, z-score of dpERK with insulin: 0.08

ScsbetaG
- replicate 1, z-score of dpERK with insulin: -0.29
- replicate 2, z-score of dpERK with insulin: 0.45

CG13063
- replicate 1, z-score of dpERK with insulin: 0.16
- replicate 2, z-score of dpERK with insulin: -0.23

cher
- replicate 1, z-score of dpERK with insulin: 0.01
- replicate 2, z-score of dpERK with insulin: 0.38

smo
- replicate 1, z-score of dpERK with insulin: 0.52
- replicate 2, z-score of dpERK with insulin: -0.36

Mps1
- replicate 1, z-score of dpERK with insulin: 0.44
- replicate 2, z-score of dpERK with insulin: -0.18

milt #1
- replicate 1, z-score of dpERK with insulin: 1.33
- replicate 2, z-score of dpERK with insulin: 0.1

milt #2
- replicate 1, z-score of dpERK with insulin: 1.09
- replicate 2, z-score of dpERK with insulin: 0.77

milt #3
- replicate 1, z-score of dpERK with insulin: 0.74
- replicate 2, z-score of dpERK with insulin: 0.34

CG32110
- replicate 1, z-score of dpERK with insulin: -0.42
- replicate 2, z-score of dpERK with insulin: 0.26

wash
- replicate 1, z-score of dpERK with insulin: 0.11
- replicate 2, z-score of dpERK with insulin: 0.2

Dop1R2 #1
- replicate 1, z-score of dpERK with insulin: 0.25
- replicate 2, z-score of dpERK with insulin: 0.45

Dop1R2 #2
- replicate 1, z-score of dpERK with insulin: 0.2
- replicate 2, z-score of dpERK with insulin: -0.95

CG34195
- replicate 1, z-score of dpERK with insulin: 0.02
- replicate 2, z-score of dpERK with insulin: 0.19

CG10343
- replicate 1, z-score of dpERK with insulin: 0.74
- replicate 2, z-score of dpERK with insulin: 1.28

CG42361
- replicate 1, z-score of dpERK with insulin: -1.13
- replicate 2, z-score of dpERK with insulin: 0.12

Plap
- replicate 1, z-score of dpERK with insulin: -0.11
- replicate 2, z-score of dpERK with insulin: -1.13

Zyx
- replicate 1, z-score of dpERK with insulin: 0.53
- replicate 2, z-score of dpERK with insulin: 0.82

CG14052 #1
- replicate 1, z-score of dpERK with insulin: 0
- replicate 2, z-score of dpERK with insulin: -1.92

CG14052 #2
- replicate 1, z-score of dpERK with insulin: 0.18
- replicate 2, z-score of dpERK with insulin: 1.03

CG18273 #1
- replicate 1, z-score of dpERK with insulin: 0.59
- replicate 2, z-score of dpERK with insulin: 0.21

CG18273 #2
- replicate 1, z-score of dpERK with insulin: 0.31
- replicate 2, z-score of dpERK with insulin: -0.08

Targets listed so far whose gene name begins with G or g (2):
gus #1
- replicate 1, z-score of dpERK with insulin: 0.09
- replicate 2, z-score of dpERK with insulin: -0.1

gus #2
- replicate 1, z-score of dpERK with insulin: 0.05
- replicate 2, z-score of dpERK with insulin: -1.38
